In assay [1] the target is Thyroid hormone receptor beta (Homo sapiens) (UniProt P10828). The experiment in a line: qHTS assay for small molecule agonists of thyroid hormone receptor beta signaling (AID 588545; calls by dose curve;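 further: 0% = DMSO only and 100% = 10 nM T3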). Particulars: TR-UAS-bla GripTite HEK 293, beta-lactamase ratio, agonist mode, 18 h, percent of T3 response, DMSO as zero; at 76.7 µM (top of the series). The gist of the method: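 TR-UAS-bla-GripTite HEK 293 cells in medium with 2% charcoal/dextran FBS, 0.1 mM NEAA and 1 mM sodium pyruvate were treated with titrated compounds for 18 hrs at 37 C. Beta-lactamase reporter was read with CCF4 dye (ex 405, em 460/530 nm); EC50 from Hill fits.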
A general note: Quantitative high-throughput screening tests each substance at several concentrations.

By UniProt entry, the sequences of proteins in these tests, tags left out. Where a name states a change or a piece, a line headed by the entry shows the natural chain unless it says otherwise.
UniProt P10828: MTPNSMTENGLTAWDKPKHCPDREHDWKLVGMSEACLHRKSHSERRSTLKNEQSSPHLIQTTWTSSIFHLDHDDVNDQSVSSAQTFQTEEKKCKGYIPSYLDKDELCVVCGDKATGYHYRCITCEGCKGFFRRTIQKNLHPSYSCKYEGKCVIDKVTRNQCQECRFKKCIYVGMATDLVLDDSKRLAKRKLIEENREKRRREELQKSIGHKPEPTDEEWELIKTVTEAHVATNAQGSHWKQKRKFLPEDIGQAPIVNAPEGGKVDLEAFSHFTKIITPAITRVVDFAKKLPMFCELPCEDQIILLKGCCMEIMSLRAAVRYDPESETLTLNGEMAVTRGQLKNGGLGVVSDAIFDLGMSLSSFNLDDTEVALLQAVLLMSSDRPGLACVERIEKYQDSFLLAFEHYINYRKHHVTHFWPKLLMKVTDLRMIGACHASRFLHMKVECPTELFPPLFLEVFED
UniProt P19793: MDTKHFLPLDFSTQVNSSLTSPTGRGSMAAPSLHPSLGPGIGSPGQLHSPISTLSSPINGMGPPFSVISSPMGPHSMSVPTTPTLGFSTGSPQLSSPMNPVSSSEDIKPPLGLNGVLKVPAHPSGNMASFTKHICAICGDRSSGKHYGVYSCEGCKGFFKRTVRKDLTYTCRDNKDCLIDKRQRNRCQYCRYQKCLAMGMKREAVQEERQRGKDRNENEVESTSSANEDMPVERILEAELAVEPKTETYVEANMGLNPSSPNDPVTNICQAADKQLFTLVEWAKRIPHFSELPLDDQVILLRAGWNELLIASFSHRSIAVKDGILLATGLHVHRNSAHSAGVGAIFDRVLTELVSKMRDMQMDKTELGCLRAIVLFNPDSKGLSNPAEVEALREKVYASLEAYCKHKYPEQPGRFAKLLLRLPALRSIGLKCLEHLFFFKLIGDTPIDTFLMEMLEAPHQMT
UniProt Q07869: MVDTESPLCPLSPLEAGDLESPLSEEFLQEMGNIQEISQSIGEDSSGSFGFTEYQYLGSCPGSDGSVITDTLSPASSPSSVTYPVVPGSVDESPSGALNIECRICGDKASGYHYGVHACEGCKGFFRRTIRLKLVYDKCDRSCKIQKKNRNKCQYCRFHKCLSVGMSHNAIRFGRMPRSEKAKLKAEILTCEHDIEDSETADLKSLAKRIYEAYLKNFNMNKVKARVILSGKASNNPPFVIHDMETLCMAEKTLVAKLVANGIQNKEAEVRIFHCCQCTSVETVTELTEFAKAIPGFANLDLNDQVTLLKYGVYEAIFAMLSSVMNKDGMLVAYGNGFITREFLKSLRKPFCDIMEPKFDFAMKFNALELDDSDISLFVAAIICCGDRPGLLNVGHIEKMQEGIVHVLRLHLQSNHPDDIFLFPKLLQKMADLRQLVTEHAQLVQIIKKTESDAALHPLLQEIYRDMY

A short description of assay [2]: qHTS assay for small molecule antagonists of retinoid X receptor alpha signaling (AID 588546; active means well fitted inhibition curve with a large enough effect in the signal ratio, with a control signal flat, not every such curve was filed as active; the % refers to the signal ratio;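 further: cells stimulated with 9-cis-retinoic acid as agonist; on the % scale 0 is the no-effect control and ±100 the full control effect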). Conditions: HEK293T RXRa-UAS-bla, beta-lactamase ratio, antagonist mode; measured here: W530 green channel, cytotoxicity proxy. The gist of the method:
(§1)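 Beta-lactamase reporter inhibition, read as CCF4 fluorescence ratio (ex 405, em 460/530 nm) after 2 h at RT. HEK293T UAS-bla cells, 2500/well, were stimulated with 9-cis-RA at 500 or 100 nM final alongside test compound for 18 h at 37 C.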

In assay [3] the target is Retinoic acid receptor RXR-alpha (Homo sapiens) (UniProt P19793). Described as above. Conditions: HEK293T RXRa-UAS-bla, beta-lactamase ratio, antagonist mode. The gist of the method: as §1
Assay [4] addresses Thyroid hormone receptor beta (Homo sapiens) (UniProt P10828). The experiment in a line: qHTS assay for small molecule antagonists of thyroid hormone receptor beta signaling (AID 588547; active means well fitted inhibition curve with a large enough effect in the signal ratio, with a control signal flat, not every such curve was filed as active; the % refers to the signal ratio;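 further: cells stimulated with 0.4 nM T3 agonist during compound exposure; on the % scale 0 is the no-effect control and ±100 the full control effect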). Conditions: TR-UAS-bla HEK293, beta-lactamase ratio, antagonist mode, 18 h. The gist of the method:
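Inhibition of T3-driven (0.4nM final) beta-lactamase reporter activity was measured over 0.59 nM to 92 uM compound after 18 h at 37 C. The cells were GripTite HEK293 TR-UAS-bla in charcoal/dextran-stripped serum, with CCF4 ratio read-out and IC50 from Hill fits.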

Assay [5] addresses Peroxisome proliferator-activated receptor alpha (Homo sapiens) (UniProt Q07869). The assay is described as follows: qHTS assay for small molecule agonists of the peroxisome proliferator-activated receptor alpha (PPARalpha) signaling pathway (AID 651778). Further: % of control where 0% means no effect. Conditions: PathHunter PPARalpha complementation, chemiluminescence, 6 h; stronger effect = higher value. The gist of the method: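 Chemiluminescence from complemented enzyme reported PPARalpha activation in cells after 6 hr of compound treatment at 37 C. The detection reagent was incubated for 60 min at room temperature, and compounds were scored as agonists.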

Assay [6] can be described thus: qHTS assay for small molecule antagonists of the retinoid-related orphan receptor gamma (ROR-gamma) signaling pathway - cell viability counter screen (AID 720652; active means well fitted curve in the direction sought with a large enough effect in the repeat runs; an effect the other way counts as inactive or inconclusive;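 further: compound exposure lasted 16 hr before ATP read; on the % scale 0 is the no-effect control and ±100 the full control effect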). Particulars: RORgamma reporter cell line viability counter screen; at 92.2 µM (top of the series). The gist of the method: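 Cytotoxicity is quantified via intracellular ATP (CellTiter-Glo luminescence) in doxycycline-induced CHO ROR response element-luciferase reporter cells treated with compound for 16 hr at 37 C, 5% CO2.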

Assay [7] is described as follows: qHTS assay for cell viability of the p53RE-bla HCT-116 cell line (AID 743292). Further: on the % scale 0 is the no-effect control and ±100 the full control effect; nearly all actives have a fitted effect of over 55% in size. Particulars: p53RE-bla HCT-116 viability, ATP luminescence, 16 h; at 95 µM (top of the series). The gist of the method:
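Readout: CellTiter-Glo luminescence after 30 min RT. Treatment: compounds in DMSO, 16 h, 37 C. Cells: CellSensor p53RE-bla HCT-116, 4,000/well, preincubated 5 h.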

Assay [8] in a line: qHTS assay for measurement of the activity of small molecule inhibitors on Zika virus induced Caspase-3 activity in human astrocytoma cells (AID 1224859).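 Further: plate controls were ZIKV-infected untreated cells for no effect and uninfected cells for full effect.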 Conditions: SNB-19 ZIKV-induced caspase-3/7, luminescence, 6 h; at 92.8 µM (top of the series). The gist of the method:
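Luminescence read-out (Caspase-Glo 3/7, 30 min RT) of caspase activity in SNB-19 cells infected 6 h with ZIKV, 2 FFU/cell, after 1 h compound pretreatment; % inhibition from induction normalised to uninfected (0%) and infected (100%) wells.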

The nature of assay [9]: NS1 protein of Zika virus - qHTS assay to identify small molecule inhibitors in human HEK 293 cells (AID 1347053).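 Further: plate controls were infected untreated cells for no effect and uninfected cells for full effect; nearly all actives have a fitted effect of over 55% in size.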 Particulars: HEK293 ZIKV MR766 infection, NS1 TR-FRET, 24 h; at 92.8 µM (top of the series). The gist of the method:
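HEK 293; 20 h pre-culture, 37 C/5% CO2; cpd 1 h pre-infection; ZIKV MR766, MOI = 0.5, 24 h, 37 C; TR-FRET NS1 readout (two anti-NS1 Abs); norm. to no-virus vs infected.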

The nature of assay [10]: qHTS of pediatric cancer cell lines to identify multiple opportunities for drug repurposing: Primary screen for TC32 cells (AID 1347089). Further: on the % scale 0 is the no-effect control and ±100 the full control effect; nearly all actives have a fitted effect of over 60% in size. Conditions: TC32 Ewing sarcoma viability, CellTiter-Glo luminescence, 48 h; at 92.2 µM (top of the series). The gist of the method:
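In the primary qHTS, MIPE compounds were tested at 11 concentrations (0.78 nM to 46 µM) and NPC compounds at 8 (0.59 nM to 46 µM) on TC32 cells for 48 h. CellTiter-Glo luminescence gave viability.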

A short description of assay [11]: qHTS of pediatric cancer cell lines to identify multiple opportunities for drug repurposing: Primary screen for DAOY cells (AID 1347090).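 Further: plate controls were DMSO for no effect and bortezomib for full effect; nearly all actives have a fitted effect of over 55% in size.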 Particulars: DAOY medulloblastoma viability, CellTiter-Glo luminescence, 48 h; at 92.7 µM (top of the series). The gist of the method: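 Cell viability, CellTiter-Glo luminescence; 500-1,000 cells/well, 8- or 11-point titration, 48 h compound exposure at 37 degrees C, 5% CO2. Controls: DMSO neutral, bortezomib 2.3 µM final as positive.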

Assay [12] is described as follows: qHTS of pediatric cancer cell lines to identify multiple opportunities for drug repurposing: Primary screen for SK-N-MC cells (AID 1347093).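 Further: plate controls were DMSO neutral control for no effect and bortezomib for full effect.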 Particulars: SK-N-MC viability, CellTiter-Glo luminescence, 48 h; at 92.7 µM (top of the series). The gist of the method: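 Metabolically active cells were quantified by ATP-dependent luminescence (CellTiter-Glo, 15 min at room temperature) following 48 h treatment. Cells had been plated at 500-1,000 per well and settled for 5 h beforehand.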

The nature of assay [13]: qHTS of pediatric cancer cell lines to identify multiple opportunities for drug repurposing: Primary screen for SK-N-SH cells (AID 1347098). Further: on the % scale 0 is the no-effect control and ±100 the full control effect; nearly all actives have a fitted effect of over 65% in size. Particulars: SK-N-SH viability, CellTiter-Glo luminescence, 48 h; at 115 µM (top of the series). The gist of the method:
(§2)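 Cells (500-1,000/well) rested 5 h, then received compounds for 48 h; metabolically active cells were measured by CellTiter-Glo luminescence. Final concentrations spanned up to 46 µM (MIPE, 11-point) or 0.59 nM-46 µM (NPC, 8-point) in primary screens, 11-point in follow-ups.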

Assay [14] can be described thus: qHTS of pediatric cancer cell lines to identify multiple opportunities for drug repurposing: Primary screen for OHS-50 cells (AID 1347103).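 Further: plate controls were DMSO neutral control for no effect and bortezomib positive control for full effect; nearly all actives have a fitted effect of over 40% in size.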 Conditions: OHS-50 osteosarcoma viability, CellTiter-Glo luminescence, 48 h; at 116 µM (top of the series). The gist of the method:
as §2

Assay [15] in a line: qHTS of pediatric cancer cell lines to identify multiple opportunities for drug repurposing: Primary screen for MG 63 (6-TG R) cells (AID 1347105). Further: on the % scale 0 is the no-effect control and ±100 the full control effect; nearly all actives have a fitted effect of over 50% in size. Particulars: MG 63 (6-TG R) viability, CellTiter-Glo, 48 h; at 92.7 µM (top of the series). The gist of the method: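 CRCs from 8- or 11-point titrations (lowest final 0.59 nM NPC, 0.78 nM MIPE). Cell viability: CellTiter-Glo after 48 h incubation, 15 min room-temperature development, luminescence imaging.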

Assay [16] in a line: qHTS of pediatric cancer cell lines to identify multiple opportunities for drug repurposing: Primary screen for Rh30 cells (AID 1347107). Further: on the % scale 0 is the no-effect control and ±100 the full control effect; nearly all actives have a fitted effect of over 75% in size. Conditions: Rh30 rhabdomyosarcoma viability, CellTiter-Glo luminescence, 48 h; at 92.7 µM (top of the series). The gist of the method:
as §2

Assay [17] in a line: qHTS to identify inhibitors of the type 1 interferon - major histocompatibility complex class I in skeletal muscle: primary screen against the NCATS Pharmaceutical Collection (AID 1347407).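 Further: luminescence of HiBiT knocked into endogenous HLA-B as interferon-induced MHC class I level; on the % scale 0 is the no-effect control and ±100 the full control effect.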 Particulars: human skeletal muscle cells, IFN-b-induced MHC-I HiBiT luminescence, 24 h; at 92.2 µM (top of the series). The gist of the method:
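HLA-B HiBiT myoblasts, dexamethasone-free growth medium + 4 ng/ml IFN-b; compounds pinned 1 h after seeding, […] from 46 uM; 24 h, 37 C, 5% CO2; lytic HiBiT detection, 10 min RT, luminescence.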

Structures are written as SMILES. Values joined by “and” are separate entries in the source; they are usually repeats but may differ in a detail not shown here. Equal values may be shown once. For some assays here: The hits were mostly taken out for another list; the other results follow. Results filed as inconclusive are left out. This is a selection; strong and weak results do not stand in their true shares. Active and inactive are the calls of the source. Unless noted, the call rests on the fitted dose curve; in most records, active means well fitted curve in the direction sought with a large enough effect; inconclusive means small, poorly fitted or top-dose-only effect, or another doubt; inactive means no such curve, though single readings can be large; an effect the other way counts as inactive or inconclusive.

Data on one compound can be found in PubChem BioAssay (NCATS).

Turning to `Nc1ccc(N)c([N+](=O)[O-])c1`, the activation in [1] was inactive: 2.02% and inactive: -11.3%. Moreover, the max response in [2] is -14.2%; in assay [3], inactive: 14.7%; in assay [5] it was inactive: -3.8% and inactive: -4.45%. Moreover, in [4], the activity change % (negative = inhibition) is inactive: 5.88% and inactive: 10.3%. Besides, the activity change, negative = cytotoxicity in [6] is inactive: 3.38%; in assay [7] it was inactive: 8.47% and inactive: -15.4%. Moreover, the activity change, negative = inhibition in [8] was inactive: -7.12%; in assay [9], inactive: 46.9%; in assay [17] it was inactive: -21%. For the same compound, the activity change, negative = cytotoxic is inactive: -9.55% in assay [10]; inactive: -22.8% in assay [11]; inactive: -36.5% in assay [12]; inactive: -20.6% in [13]; inactive: 38.9% in [14]; inactive: -6.33% in assay [15]. In addition, the activity change, negative = cytotoxic in [16] is inactive: 9.11%.
